Results are given in words; binding and its absence hold for the method and conditions named. Binding calls can cover weak binding; strength is not graded here. Tags and fused reporters may be left off the sequences shown.
Experiments:
[1] = target: T1, SPL15 (yeast two-hybrid fusion) (Arabidopsis thaliana) (UniProt Q9M2Q6); test: two-hybrid; LexA/AD system in yeast strain EGY48 plus H18; SD/-Ura/-Trp/-His, then raffinose, galactose and X-gal for blue color development
T1 sequence: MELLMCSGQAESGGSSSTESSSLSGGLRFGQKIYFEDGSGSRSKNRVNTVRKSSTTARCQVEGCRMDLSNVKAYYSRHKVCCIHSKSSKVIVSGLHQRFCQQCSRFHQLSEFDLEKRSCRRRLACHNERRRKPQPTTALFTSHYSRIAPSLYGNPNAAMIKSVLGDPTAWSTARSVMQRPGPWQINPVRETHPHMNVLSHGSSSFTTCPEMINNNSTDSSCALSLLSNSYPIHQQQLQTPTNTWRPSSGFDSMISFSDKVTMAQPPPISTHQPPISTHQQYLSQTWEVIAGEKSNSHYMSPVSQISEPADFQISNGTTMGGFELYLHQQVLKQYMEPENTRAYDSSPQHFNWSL

[2] = target: T2, SPL9 (yeast two-hybrid fusion) (Arabidopsis thaliana) (UniProt Q700W2); test: as above
T2 sequence: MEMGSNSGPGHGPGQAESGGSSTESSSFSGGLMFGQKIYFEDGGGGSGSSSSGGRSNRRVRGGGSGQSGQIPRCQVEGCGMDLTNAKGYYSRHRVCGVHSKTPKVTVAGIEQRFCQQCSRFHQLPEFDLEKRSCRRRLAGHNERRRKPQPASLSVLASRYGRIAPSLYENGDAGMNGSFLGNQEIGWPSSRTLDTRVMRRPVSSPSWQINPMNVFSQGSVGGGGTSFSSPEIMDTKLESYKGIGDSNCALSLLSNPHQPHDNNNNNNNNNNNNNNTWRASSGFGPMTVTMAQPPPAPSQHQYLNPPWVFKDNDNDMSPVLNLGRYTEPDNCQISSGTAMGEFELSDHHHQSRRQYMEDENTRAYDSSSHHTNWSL

Row | binding [1] | binding [2] | Substance
1 | binds | binds | FHY3-II domain (yeast two-hybrid fusion) (Arabidopsis thaliana) (domain or fragment)
2 | no binding | no binding | FHY3-III domain (yeast two-hybrid fusion) (Arabidopsis thaliana) (domain or fragment)

From article PMC7181604, “Arabidopsis FHY3 and FAR1 integrate light and strigolactone signaling to regulate branching”
